# Measurements reported in PubChem BioAssay AID1508597 (Cure First, 2020).
# Aim: 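Knock-downs altering ovarian cancer cell survival with or without PARP inhibitor rucaparib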 (primary screen)
# System: human ovarian carcinoma lines grown from tumours: OCI-P5x (papillary serous) and OCI-C5x (clear cell)
# Reagents: siRNA pool against human genes, 1.25 pmol siRNA per well
# Time to read-out: 72 h or 96 h, depending on the cell culture
# Conditions: rucaparib 20 µM (about IC30) or vehicle, present until read-out
# Rucaparib or vehicle: Vehicle
# Cell line: OCI-P5x (serous)
# Detection: 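ATP luminescence measured at 72 or 96 h according to the culture, then normalised and expressed as percent viability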
# Reading the numbers: viability, normalised: higher = more viable cells remaining
# Active means: 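Active when normalised viability falls below 80 percent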
# Meaning of the calls: active = viability under 80%; inactive = viability 80% or more
# This is an unselected part of the about 2,100 reagents, in one setting of the screen. 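Calls flag viability under 80% in either arm, not effects specific to rucaparib; the reference for percent is not stated.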 The numbers tell different reagents against one gene apart. Some reagents were tested in more than one well and are listed for each. Reagent sequences are not shown. The record does not give: the 100% reference.
gene knocked down,pool no.,technical replicate,"viability, normalised (%)",Call
ARID4B (GeneID 51742),1,1,78.2,active
ARID4B (GeneID 51742),1,2,92.2,inactive
ARID4B (GeneID 51742),1,3,77.6,active
LEF1 (GeneID 51176),1,1,46.8,active
LEF1 (GeneID 51176),1,2,65.5,active
LEF1 (GeneID 51176),1,3,77.3,active
PLCB3 (GeneID 5331),1,1,64.8,active
PLCB3 (GeneID 5331),1,2,52.3,active
PLCB3 (GeneID 5331),1,3,68.8,active
ADAM9 (GeneID 8754),1,1,42.8,active
ADAM9 (GeneID 8754),1,2,57.2,active
ADAM9 (GeneID 8754),1,3,49.5,active
MERTK (GeneID 10461),1,1,75.7,active
MERTK (GeneID 10461),1,2,77.3,active
MERTK (GeneID 10461),1,3,66.8,active
POLR2I (GeneID 5438),1,1,48.7,active
POLR2I (GeneID 5438),1,2,63.7,active
POLR2I (GeneID 5438),1,3,66.9,active
POLE2 (GeneID 5427),1,1,58.4,active
POLE2 (GeneID 5427),1,2,32.3,active
POLE2 (GeneID 5427),1,3,48,active
DDX43 (GeneID 55510),1,1,85.9,inactive
DDX43 (GeneID 55510),1,2,78,active
DDX43 (GeneID 55510),1,3,83.6,inactive
SRPK3 (GeneID 26576),1,1,75.7,active
SRPK3 (GeneID 26576),1,2,66.2,active
SRPK3 (GeneID 26576),1,3,79.8,active
HERC2 (GeneID 8924),1,1,66.1,active
HERC2 (GeneID 8924),1,1,136,inactive
HERC2 (GeneID 8924),1,2,131,inactive
HERC2 (GeneID 8924),1,2,63.7,active
HERC2 (GeneID 8924),1,3,147,inactive
HERC2 (GeneID 8924),1,3,59,active
EDC4 (GeneID 23644),1,1,75.7,active
EDC4 (GeneID 23644),1,2,80.1,inactive
EDC4 (GeneID 23644),1,3,80.7,inactive
OGA (GeneID 10724),1,1,56.2,active
OGA (GeneID 10724),1,2,56.5,active
OGA (GeneID 10724),1,3,57.1,active
PAX5 (GeneID 5079),1,1,47.9,active
PAX5 (GeneID 5079),1,2,64.9,active
PAX5 (GeneID 5079),1,3,64.9,active
LRWD1 (GeneID 222229),1,1,67.5,active
LRWD1 (GeneID 222229),1,2,71.1,active
LRWD1 (GeneID 222229),1,3,69.1,active
PELO (GeneID 53918),1,1,70.2,active
PELO (GeneID 53918),1,2,73.5,active
PELO (GeneID 53918),1,3,88.1,inactive
TCF7L1 (GeneID 83439),1,1,72.6,active
TCF7L1 (GeneID 83439),1,2,56.4,active
TCF7L1 (GeneID 83439),1,3,81.6,inactive
MAP3K3 (GeneID 4215),1,1,104,inactive
MAP3K3 (GeneID 4215),1,2,82.4,inactive
MAP3K3 (GeneID 4215),1,3,91.6,inactive
MECOM (GeneID 2122),1,1,81,inactive
MECOM (GeneID 2122),1,2,87.4,inactive
MECOM (GeneID 2122),1,3,86.8,inactive
MECOM (GeneID 2122),2,1,53.7,active
MECOM (GeneID 2122),2,2,47.9,active
MECOM (GeneID 2122),2,3,64,active
PDE1A (GeneID 5136),1,1,75.6,active
PDE1A (GeneID 5136),1,2,88.8,inactive
PDE1A (GeneID 5136),1,3,77.1,active
BRCA2 (GeneID 675),1,1,67,active
BRCA2 (GeneID 675),1,1,67.6,active
BRCA2 (GeneID 675),1,1,63.3,active
BRCA2 (GeneID 675),1,2,53,active
BRCA2 (GeneID 675),1,2,71,active
BRCA2 (GeneID 675),1,2,63.7,active
BRCA2 (GeneID 675),1,3,133,inactive
BRCA2 (GeneID 675),1,3,64.4,active
BRCA2 (GeneID 675),1,3,83.3,inactive
SIRT7 (GeneID 51547),1,1,50,active
SIRT7 (GeneID 51547),1,2,50.3,active
SIRT7 (GeneID 51547),1,3,59.1,active

In a second layout: 6 of the entries above
{"gene knocked down": "ADAM9 (GeneID 8754)", "pool no.": 1, "technical replicate": "1", "viability, normalised (%)": 42.8, "Call": "active"}
{"gene knocked down": "ADAM9 (GeneID 8754)", "pool no.": 1, "technical replicate": "2", "viability, normalised (%)": 57.2, "Call": "active"}
{"gene knocked down": "ADAM9 (GeneID 8754)", "pool no.": 1, "technical replicate": "3", "viability, normalised (%)": 49.5, "Call": "active"}
{"gene knocked down": "MERTK (GeneID 10461)", "pool no.": 1, "technical replicate": "1", "viability, normalised (%)": 75.7, "Call": "active"}
{"gene knocked down": "MERTK (GeneID 10461)", "pool no.": 1, "technical replicate": "2", "viability, normalised (%)": 77.3, "Call": "active"}
{"gene knocked down": "MERTK (GeneID 10461)", "pool no.": 1, "technical replicate": "3", "viability, normalised (%)": 66.8, "Call": "active"}
